In patent US20210046154A1:
No constants are given. Whether binding was seen depends on the method and setting. In cells and extracts the contact can be indirect. Some results given as binding are weak or reduced against the parent protein; the word gives no strength. Blank lines part the entries; values can stand above or below the molecule they belong to.

Protein sequences, listed by entry. Tags and fused reporters are not part of them.
UniProt P29351: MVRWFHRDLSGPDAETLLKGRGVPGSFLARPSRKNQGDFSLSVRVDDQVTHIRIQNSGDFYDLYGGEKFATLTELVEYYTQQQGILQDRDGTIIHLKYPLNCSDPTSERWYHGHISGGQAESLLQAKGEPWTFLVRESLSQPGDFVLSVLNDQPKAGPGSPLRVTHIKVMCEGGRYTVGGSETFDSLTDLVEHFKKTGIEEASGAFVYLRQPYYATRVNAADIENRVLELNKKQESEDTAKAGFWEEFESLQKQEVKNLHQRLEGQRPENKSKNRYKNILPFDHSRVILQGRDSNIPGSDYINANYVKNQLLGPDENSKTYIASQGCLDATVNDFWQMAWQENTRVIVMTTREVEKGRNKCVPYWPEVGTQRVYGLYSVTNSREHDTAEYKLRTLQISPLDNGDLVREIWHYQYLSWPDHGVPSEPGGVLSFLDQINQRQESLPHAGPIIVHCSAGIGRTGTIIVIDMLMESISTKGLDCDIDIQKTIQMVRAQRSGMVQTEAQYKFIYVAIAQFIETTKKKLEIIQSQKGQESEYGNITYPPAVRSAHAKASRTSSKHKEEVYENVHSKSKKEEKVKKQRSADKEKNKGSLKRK

Legend:
mouse Siglec G (mouse) = target: T1, mouse Siglec G (mouse) (UniProt Q80ZE3); experiment: Co-immunoprecipitation: Siglec G precipitated from CD24-/- spleen cells stimulated for 30 minutes with 1 µg/ml CD24Fc, control Fc or PBS; Western blot with anti-SHP-1
T1 sequence (looked up): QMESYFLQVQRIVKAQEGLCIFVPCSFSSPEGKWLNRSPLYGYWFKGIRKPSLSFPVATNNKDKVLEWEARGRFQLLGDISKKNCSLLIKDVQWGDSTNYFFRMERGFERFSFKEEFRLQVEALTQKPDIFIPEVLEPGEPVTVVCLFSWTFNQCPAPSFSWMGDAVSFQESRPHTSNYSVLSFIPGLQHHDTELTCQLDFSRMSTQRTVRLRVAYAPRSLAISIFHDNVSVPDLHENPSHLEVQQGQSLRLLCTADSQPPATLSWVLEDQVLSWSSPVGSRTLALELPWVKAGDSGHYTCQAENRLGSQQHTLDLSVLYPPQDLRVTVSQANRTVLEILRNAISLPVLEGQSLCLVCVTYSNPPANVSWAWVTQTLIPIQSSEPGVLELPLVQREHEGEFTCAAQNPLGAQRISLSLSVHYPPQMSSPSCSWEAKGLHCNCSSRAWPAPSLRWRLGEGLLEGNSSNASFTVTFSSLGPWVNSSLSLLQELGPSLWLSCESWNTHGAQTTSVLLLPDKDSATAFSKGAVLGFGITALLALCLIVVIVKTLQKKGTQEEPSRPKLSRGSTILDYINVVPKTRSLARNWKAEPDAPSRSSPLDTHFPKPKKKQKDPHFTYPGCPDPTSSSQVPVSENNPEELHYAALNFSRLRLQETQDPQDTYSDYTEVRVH

SHP-1 [1] = target: SHP-1 (UniProt P29351); experiment: co-immunoprecipitation of Siglec G from CD24-/- spleen cells stimulated with 1 µg/ml CD24Fc, probed with anti-SHP-1 (FIG. 5C)
SHP-1 [2] = target: SHP-1 (UniProt P29351); experiment: co-immunoprecipitation of Siglec G from CD24-/- spleen cells stimulated with CD24Fc, probed with anti-SHP-1

- binding (mouse Siglec G (mouse)): binds
Molecule: SHP-1 (from UniProt P29351 1-595) (enzyme)

- binding (SHP-1 [1]): binds
- binding (SHP-1 [2]): binds
B1: mouse Siglec G (receptor, UniProt Q80ZE3 18-688, looked up)
chain: T1 sequence (looked up)
